Among the data in the supplement of paper PMC12819154, “High-throughput peptide-centric local stability assay extends protein–ligand identification to membrane proteins, tissues and bacteria” (Nature Structural & Molecular Biology, 2025) are log2 fold change values, retold here.

Chains of the proteins cited; added tags and fusions are not shown. Lines headed by an entry give the natural chain unless they say otherwise; changes in a name come on top.
UniProt Q6ZQ12: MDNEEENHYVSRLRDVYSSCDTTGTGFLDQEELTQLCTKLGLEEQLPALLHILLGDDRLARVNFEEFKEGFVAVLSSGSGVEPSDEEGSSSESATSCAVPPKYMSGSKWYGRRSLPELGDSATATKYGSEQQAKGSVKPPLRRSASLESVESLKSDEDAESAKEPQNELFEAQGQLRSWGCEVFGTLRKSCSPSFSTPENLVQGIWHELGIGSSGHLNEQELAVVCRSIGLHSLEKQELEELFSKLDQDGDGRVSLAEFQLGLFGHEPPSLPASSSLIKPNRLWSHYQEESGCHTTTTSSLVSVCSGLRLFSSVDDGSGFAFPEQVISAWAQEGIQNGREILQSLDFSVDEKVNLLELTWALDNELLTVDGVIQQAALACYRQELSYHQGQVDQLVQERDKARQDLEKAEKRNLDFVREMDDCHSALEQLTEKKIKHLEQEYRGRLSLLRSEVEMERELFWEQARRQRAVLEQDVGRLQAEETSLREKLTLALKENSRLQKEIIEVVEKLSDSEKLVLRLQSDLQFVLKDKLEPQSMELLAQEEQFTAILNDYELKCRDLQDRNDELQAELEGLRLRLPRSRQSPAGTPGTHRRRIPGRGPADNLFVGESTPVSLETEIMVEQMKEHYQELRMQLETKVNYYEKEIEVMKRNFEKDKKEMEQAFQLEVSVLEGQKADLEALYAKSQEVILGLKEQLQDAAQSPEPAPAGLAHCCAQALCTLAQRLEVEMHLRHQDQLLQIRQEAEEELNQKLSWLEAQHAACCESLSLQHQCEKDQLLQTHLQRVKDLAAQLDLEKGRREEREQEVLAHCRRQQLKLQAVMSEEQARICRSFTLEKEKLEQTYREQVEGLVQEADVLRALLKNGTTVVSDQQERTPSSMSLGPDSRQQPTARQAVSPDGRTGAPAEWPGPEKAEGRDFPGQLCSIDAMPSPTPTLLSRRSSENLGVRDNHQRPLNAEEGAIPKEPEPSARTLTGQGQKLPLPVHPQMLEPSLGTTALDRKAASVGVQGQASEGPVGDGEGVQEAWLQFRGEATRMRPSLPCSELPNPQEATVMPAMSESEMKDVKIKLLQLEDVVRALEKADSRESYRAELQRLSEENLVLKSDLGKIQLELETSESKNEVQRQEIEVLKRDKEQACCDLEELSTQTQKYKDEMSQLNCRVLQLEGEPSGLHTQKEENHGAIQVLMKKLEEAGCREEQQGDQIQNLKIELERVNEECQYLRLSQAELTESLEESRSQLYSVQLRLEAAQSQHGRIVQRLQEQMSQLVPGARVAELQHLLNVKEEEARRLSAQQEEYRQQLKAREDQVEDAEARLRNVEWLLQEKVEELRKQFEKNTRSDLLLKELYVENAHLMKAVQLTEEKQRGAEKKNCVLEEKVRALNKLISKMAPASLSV
UniProt Q7TT28: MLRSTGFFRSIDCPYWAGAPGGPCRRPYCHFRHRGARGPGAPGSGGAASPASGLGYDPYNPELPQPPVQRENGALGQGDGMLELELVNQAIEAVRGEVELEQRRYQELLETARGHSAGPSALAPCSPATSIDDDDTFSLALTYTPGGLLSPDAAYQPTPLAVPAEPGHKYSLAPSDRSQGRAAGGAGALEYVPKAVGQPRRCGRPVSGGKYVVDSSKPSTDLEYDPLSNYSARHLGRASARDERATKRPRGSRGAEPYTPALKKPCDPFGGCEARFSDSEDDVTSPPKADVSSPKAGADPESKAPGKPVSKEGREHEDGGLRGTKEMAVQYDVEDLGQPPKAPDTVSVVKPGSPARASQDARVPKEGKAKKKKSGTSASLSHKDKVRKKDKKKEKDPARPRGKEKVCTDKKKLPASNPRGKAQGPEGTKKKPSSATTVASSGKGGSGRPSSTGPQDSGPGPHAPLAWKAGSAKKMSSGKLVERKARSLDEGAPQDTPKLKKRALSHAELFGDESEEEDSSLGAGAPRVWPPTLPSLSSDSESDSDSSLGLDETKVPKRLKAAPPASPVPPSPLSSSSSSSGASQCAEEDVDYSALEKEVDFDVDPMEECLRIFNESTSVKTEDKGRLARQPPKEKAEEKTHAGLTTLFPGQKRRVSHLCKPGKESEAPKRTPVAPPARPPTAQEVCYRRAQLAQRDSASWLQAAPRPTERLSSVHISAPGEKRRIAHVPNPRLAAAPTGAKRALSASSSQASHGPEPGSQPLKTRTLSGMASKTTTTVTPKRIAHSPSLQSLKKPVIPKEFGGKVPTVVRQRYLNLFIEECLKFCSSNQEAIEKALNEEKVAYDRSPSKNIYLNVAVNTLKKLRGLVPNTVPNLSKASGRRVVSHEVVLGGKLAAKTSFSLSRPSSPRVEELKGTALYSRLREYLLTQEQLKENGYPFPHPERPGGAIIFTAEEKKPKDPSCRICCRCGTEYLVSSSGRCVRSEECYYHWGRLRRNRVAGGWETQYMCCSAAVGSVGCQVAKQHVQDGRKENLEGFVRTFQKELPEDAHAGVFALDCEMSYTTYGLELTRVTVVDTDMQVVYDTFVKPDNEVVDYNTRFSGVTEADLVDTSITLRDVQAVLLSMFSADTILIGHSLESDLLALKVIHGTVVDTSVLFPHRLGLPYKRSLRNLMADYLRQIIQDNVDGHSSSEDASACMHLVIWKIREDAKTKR
UniProt Q80U93: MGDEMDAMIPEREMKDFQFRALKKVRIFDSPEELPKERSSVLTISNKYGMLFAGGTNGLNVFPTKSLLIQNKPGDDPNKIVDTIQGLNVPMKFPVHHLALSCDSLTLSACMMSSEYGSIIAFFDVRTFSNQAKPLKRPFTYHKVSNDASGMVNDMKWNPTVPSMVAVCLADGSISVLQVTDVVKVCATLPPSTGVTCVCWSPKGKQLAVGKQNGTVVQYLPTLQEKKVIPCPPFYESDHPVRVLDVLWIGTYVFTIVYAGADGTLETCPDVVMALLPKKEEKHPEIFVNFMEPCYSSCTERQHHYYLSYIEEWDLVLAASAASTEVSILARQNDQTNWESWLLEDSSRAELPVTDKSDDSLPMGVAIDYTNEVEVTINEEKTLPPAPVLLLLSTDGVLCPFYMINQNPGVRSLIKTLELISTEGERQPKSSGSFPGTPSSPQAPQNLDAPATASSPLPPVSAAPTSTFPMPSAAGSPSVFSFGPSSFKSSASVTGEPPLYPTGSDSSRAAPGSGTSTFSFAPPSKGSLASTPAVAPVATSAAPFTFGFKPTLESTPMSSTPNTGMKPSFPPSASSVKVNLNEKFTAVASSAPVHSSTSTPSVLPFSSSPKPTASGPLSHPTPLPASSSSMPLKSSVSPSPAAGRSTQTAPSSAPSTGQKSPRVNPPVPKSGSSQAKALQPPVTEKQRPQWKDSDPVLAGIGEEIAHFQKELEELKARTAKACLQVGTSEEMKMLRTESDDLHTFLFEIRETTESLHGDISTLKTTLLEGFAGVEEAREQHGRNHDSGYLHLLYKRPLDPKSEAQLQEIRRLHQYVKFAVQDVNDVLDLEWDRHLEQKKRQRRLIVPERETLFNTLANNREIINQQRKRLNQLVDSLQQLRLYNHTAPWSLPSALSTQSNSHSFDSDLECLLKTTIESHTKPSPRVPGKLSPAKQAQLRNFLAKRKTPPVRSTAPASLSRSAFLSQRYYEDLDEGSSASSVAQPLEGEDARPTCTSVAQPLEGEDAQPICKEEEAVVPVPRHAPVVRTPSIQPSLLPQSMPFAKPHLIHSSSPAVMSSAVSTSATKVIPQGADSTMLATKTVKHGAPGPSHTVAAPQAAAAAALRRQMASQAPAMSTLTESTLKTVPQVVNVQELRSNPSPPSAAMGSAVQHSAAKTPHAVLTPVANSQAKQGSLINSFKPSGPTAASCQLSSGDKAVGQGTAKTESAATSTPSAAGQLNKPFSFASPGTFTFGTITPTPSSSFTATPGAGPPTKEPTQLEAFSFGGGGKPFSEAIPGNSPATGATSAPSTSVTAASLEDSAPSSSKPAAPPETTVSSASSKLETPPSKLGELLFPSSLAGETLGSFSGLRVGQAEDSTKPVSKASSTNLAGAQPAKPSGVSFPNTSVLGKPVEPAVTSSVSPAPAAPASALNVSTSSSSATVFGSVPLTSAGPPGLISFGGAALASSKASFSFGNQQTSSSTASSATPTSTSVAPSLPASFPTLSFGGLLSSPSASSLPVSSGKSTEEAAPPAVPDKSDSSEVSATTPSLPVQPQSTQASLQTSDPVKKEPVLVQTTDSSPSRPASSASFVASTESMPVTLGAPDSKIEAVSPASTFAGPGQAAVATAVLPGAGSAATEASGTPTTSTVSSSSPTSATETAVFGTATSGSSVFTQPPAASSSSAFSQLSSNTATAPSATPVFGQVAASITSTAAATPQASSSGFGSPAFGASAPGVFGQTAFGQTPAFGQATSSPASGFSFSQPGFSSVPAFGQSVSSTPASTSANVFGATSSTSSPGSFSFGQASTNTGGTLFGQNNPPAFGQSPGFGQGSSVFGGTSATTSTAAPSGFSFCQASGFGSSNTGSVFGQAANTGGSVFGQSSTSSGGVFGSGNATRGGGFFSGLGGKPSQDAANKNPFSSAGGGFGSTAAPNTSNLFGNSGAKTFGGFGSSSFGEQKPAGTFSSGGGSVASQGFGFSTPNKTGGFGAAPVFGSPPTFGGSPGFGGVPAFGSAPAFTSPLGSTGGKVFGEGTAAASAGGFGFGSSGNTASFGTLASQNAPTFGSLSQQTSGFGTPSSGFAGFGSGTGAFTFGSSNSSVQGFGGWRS
UniProt Q80V03: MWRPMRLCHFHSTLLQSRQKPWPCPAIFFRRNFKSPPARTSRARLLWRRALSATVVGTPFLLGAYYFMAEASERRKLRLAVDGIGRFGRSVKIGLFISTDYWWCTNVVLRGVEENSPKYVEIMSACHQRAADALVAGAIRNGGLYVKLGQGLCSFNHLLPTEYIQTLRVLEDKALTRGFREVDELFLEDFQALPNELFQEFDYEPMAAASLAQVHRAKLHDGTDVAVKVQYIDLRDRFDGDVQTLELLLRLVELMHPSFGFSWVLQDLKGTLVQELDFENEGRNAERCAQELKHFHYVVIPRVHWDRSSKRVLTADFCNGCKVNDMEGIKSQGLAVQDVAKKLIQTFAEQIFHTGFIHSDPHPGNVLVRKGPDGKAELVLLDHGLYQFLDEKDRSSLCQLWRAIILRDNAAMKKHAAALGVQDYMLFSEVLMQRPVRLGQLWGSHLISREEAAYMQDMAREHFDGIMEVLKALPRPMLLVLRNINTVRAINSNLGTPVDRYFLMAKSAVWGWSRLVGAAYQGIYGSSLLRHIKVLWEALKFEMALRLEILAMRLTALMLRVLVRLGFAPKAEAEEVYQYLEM
UniProt Q7TSH3: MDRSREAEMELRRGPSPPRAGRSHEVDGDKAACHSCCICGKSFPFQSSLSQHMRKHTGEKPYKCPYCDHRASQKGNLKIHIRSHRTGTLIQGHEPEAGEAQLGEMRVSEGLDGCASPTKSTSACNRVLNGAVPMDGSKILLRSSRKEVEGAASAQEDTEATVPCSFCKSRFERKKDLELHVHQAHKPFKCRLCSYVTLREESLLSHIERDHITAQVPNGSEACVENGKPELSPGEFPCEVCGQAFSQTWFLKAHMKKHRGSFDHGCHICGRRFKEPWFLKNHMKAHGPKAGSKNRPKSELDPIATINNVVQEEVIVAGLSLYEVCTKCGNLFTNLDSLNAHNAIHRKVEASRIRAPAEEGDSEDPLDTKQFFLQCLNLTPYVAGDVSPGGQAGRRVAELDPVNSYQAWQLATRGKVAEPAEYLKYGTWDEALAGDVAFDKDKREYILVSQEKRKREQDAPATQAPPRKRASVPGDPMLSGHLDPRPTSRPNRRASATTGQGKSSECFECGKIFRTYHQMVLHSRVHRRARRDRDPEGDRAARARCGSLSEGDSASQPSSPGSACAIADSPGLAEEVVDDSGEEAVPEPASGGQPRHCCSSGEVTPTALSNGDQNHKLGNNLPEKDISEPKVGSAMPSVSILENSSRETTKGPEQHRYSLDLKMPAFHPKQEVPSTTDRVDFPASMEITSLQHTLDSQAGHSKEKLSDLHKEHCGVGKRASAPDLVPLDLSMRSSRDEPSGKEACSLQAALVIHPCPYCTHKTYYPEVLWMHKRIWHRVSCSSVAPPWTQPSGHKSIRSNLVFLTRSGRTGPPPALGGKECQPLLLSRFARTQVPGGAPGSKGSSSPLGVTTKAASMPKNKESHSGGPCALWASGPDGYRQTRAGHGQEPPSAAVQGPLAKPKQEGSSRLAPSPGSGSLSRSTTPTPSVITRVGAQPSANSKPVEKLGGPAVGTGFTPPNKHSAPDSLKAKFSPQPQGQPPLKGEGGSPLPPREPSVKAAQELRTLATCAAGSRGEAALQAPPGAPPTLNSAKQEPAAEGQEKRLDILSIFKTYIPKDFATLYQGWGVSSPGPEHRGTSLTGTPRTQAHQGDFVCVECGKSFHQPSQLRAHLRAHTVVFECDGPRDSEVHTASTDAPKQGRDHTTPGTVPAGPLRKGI

The list shows a part of the results. Small differences around the control level are noise.

Compound in this assay: CN[C@@H]1C[C@H]2O[C@@](C)([C@@H]1OC)n1c3ccccc3c3c4c(c5c6ccccc6n2c5c31)C(=O)NC4 [staurosporine]
Kind of assay: log2 fold change of tryptic peptide abundance, ligand vs vehicle (limited proteolysis) (log2 ratio); higher = more trypsin-susceptible (destabilized). The note with it: ligand concentration: 20 uM; sample: mouse liver crude lysate; replicate design: treated separately.
In the case of “UniProt Q7JJ13 (peptide sequence: GRIGIDEDDKGPR, peptide start residue: 563)”, the log2 fold change was -0.328. Consider “UniProt Q6ZQ12 (peptide sequence: ELYVENAHLMK, peptide start residue: 1344)”, for which the log2 fold change was determined as 0.0337. Take “UniProt Q6ZQ93 (peptide sequence: TTLLELQK, peptide start residue: 1972)”: the log2 fold change stood at 0.357. With “UniProt Q80U44 (peptide sequence: SDVLDGETDLSKKETCR, peptide start residue: 413)”, the log2 fold change is -0.452. On to “UniProt Q7TPM1 (peptide sequence: RTQEEGKDWSGTAGGSR, peptide start residue: 426)”, for which the log2 fold change was determined as 0.604. Consider “UniProt Q7TT28 (peptide sequence: AAGGAGALEYVPK, peptide start residue: 182)”, for which the log2 fold change is -0.593. As for “UniProt Q80U93 (peptide sequence: KRLNQLVDSLQQLR, peptide start residue: 867)”, the log2 fold change is -0.35. Consider “UniProt Q80V03 (peptide sequence: YVEIMSACHQR, peptide start residue: 119)”, for which the log2 fold change is -0.341. For the target “UniProt Q78JN3 (peptide sequence: ESKDILVTSEDGITK, peptide start residue: 136)”, the log2 fold change is -0.187.

For the target “UniProt Q7TSI1 (peptide sequence: AALHGPFSQGPR, peptide start residue: 476)”, the log2 fold change worked out at 0.387. Take “UniProt Q791V5 (peptide sequence: SAATLITHPFHVITLR, peptide start residue: 132)”: the log2 fold change is -0.822. For “UniProt Q7TN60 (peptide sequence: LHSVYEEEGR, peptide start residue: 770)”, the log2 fold change was -0.207. For “UniProt Q7TSZ8 (peptide sequence: VKTEQELDSVQCTPMAK, peptide start residue: 166)”, the log2 fold change was -0.272. For “UniProt Q7TNP2 (peptide sequence: YMVADKFSELQK, peptide start residue: 273)”, the log2 fold change was -0.228. For “UniProt Q80TE0 (peptide sequence: PKPGESEVDLLR, peptide start residue: 6)” the value was -0.353; for “UniProt Q80UU9 (peptide sequence: EKYDYVGR, peptide start residue: 186)”, -0.0802. For “UniProt Q80TN4 (peptide sequence: DYTGYVLALNGHKK, peptide start residue: 691)”, the log2 fold change was determined as 0.358. With “UniProt Q78JE5 (peptide sequence: TVEAAMQR, peptide start residue: 300)” the figure was 0.416.

Turning to “UniProt Q7TQJ8 (peptide sequence: SYHPGCFR, peptide start residue: 547)”, the log2 fold change is -0.862.

In the case of “UniProt Q71FD5 (peptide sequence: DRPAGGGPGGPR, peptide start residue: 125)”, the log2 fold change is -0.421. “UniProt Q7TSH3 (peptide sequence: SNLVFLTR, peptide start residue: 798)”: the log2 fold change was determined as 0.552.

Regarding “UniProt Q70IV5 (peptide sequence: AEVSTIHLQSPGRK, peptide start residue: 590)”, the log2 fold change is -0.0851. In the case of “UniProt Q7TMB8 (peptide sequence: LVHPTDKYSNK, peptide start residue: 416)”, the log2 fold change stood at 0.512. As to “UniProt Q6ZQ88 (peptide sequence: NYPATVHGALLSGLR, peptide start residue: 807)”, the log2 fold change was -0.0371. On to “UniProt Q80UP8 (peptide sequence: ALSMTHGSAK, peptide start residue: 314)”, for which the log2 fold change is -0.199. Consider “UniProt Q6Y685 (peptide sequence: TIAQMIEDEQR, peptide start residue: 617)”, for which the log2 fold change is -0.171. As to “UniProt Q7TPD1 (peptide sequence: SSMEGASTSTTENFGHR, peptide start residue: 120)”, the log2 fold change was -0.115.

With “UniProt Q7TQK1 (peptide sequence: VFSVIHSNDPVAR, peptide start residue: 107)”, the log2 fold change was 0.565.

“UniProt Q80TZ9 (peptide sequence: CNISHFSDIFAAR, peptide start residue: 245)”: the log2 fold change was -0.289.
